These are yes or no findings as the source states them, for the method shown. Some results given as binding are weak or reduced against the parent protein; the word gives no strength.
Key:
mRXRγ (mouse) [1] = target: T1, mRXRγ (mouse) (UniProt P28705); experiment: co-operative binding to PPRE (gel retardation)
T1 sequence (looked up): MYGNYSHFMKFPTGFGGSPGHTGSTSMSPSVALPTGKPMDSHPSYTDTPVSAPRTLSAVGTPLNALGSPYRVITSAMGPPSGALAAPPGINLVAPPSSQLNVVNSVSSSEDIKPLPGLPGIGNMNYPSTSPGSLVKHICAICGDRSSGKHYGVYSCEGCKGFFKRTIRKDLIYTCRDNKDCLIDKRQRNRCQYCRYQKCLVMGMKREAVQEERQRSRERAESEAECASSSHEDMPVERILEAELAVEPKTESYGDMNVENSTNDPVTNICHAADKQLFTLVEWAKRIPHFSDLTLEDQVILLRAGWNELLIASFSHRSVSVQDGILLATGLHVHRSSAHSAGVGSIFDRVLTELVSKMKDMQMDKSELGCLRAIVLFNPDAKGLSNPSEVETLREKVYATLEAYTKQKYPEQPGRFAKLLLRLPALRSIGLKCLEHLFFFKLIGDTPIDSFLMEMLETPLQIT

The chains behind the UniProt entries cited, without tags or fusion partners. Where a name states a change or a piece, a line headed by the entry shows the natural chain unless it says otherwise.
UniProt P37231: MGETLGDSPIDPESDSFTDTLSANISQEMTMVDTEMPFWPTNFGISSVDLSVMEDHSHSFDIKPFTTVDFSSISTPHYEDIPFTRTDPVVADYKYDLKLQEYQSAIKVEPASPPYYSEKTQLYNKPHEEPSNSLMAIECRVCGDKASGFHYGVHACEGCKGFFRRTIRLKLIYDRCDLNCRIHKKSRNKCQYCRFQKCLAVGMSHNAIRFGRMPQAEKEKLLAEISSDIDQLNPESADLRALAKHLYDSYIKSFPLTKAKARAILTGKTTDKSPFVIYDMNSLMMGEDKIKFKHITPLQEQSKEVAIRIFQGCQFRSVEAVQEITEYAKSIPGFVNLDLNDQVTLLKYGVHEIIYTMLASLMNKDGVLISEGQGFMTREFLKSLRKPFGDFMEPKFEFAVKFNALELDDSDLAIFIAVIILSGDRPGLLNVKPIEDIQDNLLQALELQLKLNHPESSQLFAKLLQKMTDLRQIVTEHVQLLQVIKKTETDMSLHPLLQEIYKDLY

mRXRβ (mouse) [2] = target: T2, mRXRβ (mouse) (UniProt P28704); experiment: co-operative binding to PPRE (gel retardation)
T2 sequence (looked up): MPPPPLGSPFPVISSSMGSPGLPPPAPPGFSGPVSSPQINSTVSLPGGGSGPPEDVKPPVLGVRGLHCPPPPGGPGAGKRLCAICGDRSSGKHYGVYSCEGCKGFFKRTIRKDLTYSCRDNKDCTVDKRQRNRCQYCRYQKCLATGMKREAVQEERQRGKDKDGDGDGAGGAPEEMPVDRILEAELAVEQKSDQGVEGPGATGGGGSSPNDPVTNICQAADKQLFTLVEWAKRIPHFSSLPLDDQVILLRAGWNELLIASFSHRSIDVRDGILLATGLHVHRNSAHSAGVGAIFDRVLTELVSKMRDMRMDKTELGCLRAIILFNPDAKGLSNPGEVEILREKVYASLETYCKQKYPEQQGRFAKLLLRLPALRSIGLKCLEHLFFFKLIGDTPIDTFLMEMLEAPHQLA

mRXRγ (mouse) [3] = target: T1, mRXRγ (mouse); experiment: gel retardation assay with PPRE oligonucleotides
mRXRβ (mouse) [4] = target: T2, mRXRβ (mouse); experiment: gel retardation assay with PPRE oligonucleotides

Measured: binding

human peroxisome proliferator activated receptor γ (hPPARγ) (from UniProt P37231 29-505)
binds: all assays above
